In this test the target is c-casitas B-lineage lymphoma (c-Cbl) (UniProt P22681). Description: co-immunoprecipitation with anti-β-pix and anti-c-Cbl from CL1-5, A549 and CL1-0/siCCN2 lysates (FIG. 4F).

Protein sequences, listed by entry. Tags and fused reporters are not part of them. Lines headed by an entry give the natural chain unless they say otherwise; changes in a name come on top. Chains listed by the source or under a name are the forms on record and can include a tag or linker.
β-pix (Q14155, form named): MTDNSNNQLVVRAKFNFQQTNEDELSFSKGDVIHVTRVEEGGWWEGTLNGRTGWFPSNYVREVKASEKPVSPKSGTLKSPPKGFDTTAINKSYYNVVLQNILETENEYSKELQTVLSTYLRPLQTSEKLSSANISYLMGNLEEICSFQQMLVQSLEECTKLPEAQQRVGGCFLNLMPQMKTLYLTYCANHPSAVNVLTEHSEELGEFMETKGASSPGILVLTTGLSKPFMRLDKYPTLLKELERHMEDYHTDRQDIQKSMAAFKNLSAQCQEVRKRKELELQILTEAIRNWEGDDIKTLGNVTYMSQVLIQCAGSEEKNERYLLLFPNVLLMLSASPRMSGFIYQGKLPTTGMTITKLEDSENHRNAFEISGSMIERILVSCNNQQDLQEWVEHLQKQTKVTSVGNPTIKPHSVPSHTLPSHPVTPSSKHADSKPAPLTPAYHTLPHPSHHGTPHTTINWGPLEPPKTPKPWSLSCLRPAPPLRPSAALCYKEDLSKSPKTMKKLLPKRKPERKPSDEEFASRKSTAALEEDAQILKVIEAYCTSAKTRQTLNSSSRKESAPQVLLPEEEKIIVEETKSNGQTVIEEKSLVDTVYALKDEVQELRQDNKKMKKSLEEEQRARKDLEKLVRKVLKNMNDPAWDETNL

Results are given in words; binding and its absence hold for the method and conditions named. Binding seen in cells or lysates may run through a third protein. Some binding calls cover weakened binding; strength is not graded here.

As to β-pix (from UniProt Q14155 1-646), the binding result was “binds”.

These data come from patent publication US20210093714A1, “Combination and method for inhibiting the cancer cells” (NATIONAL TAIWAN UNIVERSITY, priority 2013, published 2021).
